Measured values reported in paper PMC7460559 (International Journal of Molecular Sciences, 2020).

Key:
[1] = test system: E. coli CCARM 1238; test: MIC assay, drug-resistant strain; assay type: cell-based; conditions: Escherichia coli, CCARM1238, peptides assayed in DMEM supplemented with 10% FBS
Text: (§1) Escherichia coli (ATCC 25922) and S. aureus (ATCC 25923) were obtained from American Type Culture Collection (Manassas, VA, USA). Escherichia coli CCARM 1229, E. coli CCARM 1238, S. aureus CCARM 3089, S. aureus 3114, Salmonella typhimurium CCARM 8009, and S. typhimurium CCARM 8013 were obtained from the culture collection of antibiotic-resistant microbes at Seoul Women’s University, Republic of Korea. Pseudomonas aeruginosa 3547 and P. aeruginosa 4007 were resistant strains isolated from hospital patients with otitis media at Chonnam National University, Republic of Korea. The rifampin-resistant S. aureus PBEL 1 and vancomycin-resistant S. aureus PBEL 2 strains used in this study were generated from wild-type S. aureus (ATCC 25923).
(§2) Bacterial cells were incubated within culture media at 37 °C. The peptide antimicrobial activity was determined by the minimal inhibition concentration (MIC) assay. […] The samples were incubated for 18–24 h at 37 °C. After incubation, the minimum inhibitory concentrations (MICs) of the peptides were determined by measuring the absorbance at an optical density of 600 nm (OD600).

[2] = test system: E. coli CCARM 1229; test: MIC assay, drug-resistant strain; assay type: cell-based; conditions: Escherichia coli, CCARM1229, peptides assayed in DMEM supplemented with 10% FBS
Text: as §1, §2

## CC1(C)S[C@@H]2[C@H](NC(=O)[C@H](N)c3ccccc3)C(=O)N2[C@H]1C(=O)O [Amp, ampicillin]
[1]
  MIC: > 512 µM
[2]
  MIC: > 512 µM
